These results are taken from patent US20160053007A1.

No constants are given. Whether binding was seen depends on the method and setting. Some results given as binding are weak or reduced against the parent protein; the word gives no strength.

This assay has as its target T1, recombinant human TL1A (human) (UniProt O95150).
T1 sequence (looked up): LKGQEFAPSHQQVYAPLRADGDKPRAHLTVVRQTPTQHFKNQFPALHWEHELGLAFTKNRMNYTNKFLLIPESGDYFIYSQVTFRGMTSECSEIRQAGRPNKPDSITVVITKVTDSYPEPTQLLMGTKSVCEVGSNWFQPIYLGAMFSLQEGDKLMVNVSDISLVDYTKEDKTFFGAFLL
Briefly: bead-based sandwich assay, 1A9 on beads as capture antibody.

B1: anti-human TL1A monoclonal antibody, hybridoma clone 1A9 (antibody, IgG2a, V domains shown)
VH: QIQLVQSGPELKKPGETVKISCKASGYTFTTYGMSWVKQAPGKGLKWMGWMNTYSGVTTYADDFKGRFAFSLETSASTAYMQIDNLKNEDTATYFCAREGYVFDDYYATDYWGQGTSVTVSS
VL: DVLMTQTPLSLPVSLGDQASISCRSSQNIVHSDGNTYLEWYLQKPGQSPKLLIYKVSNRFSGVPDRFSGSGSGTDFTLKISRVEAEDLGIYYCFQGSHVPLTFGAGTKLELK
Take B1: the binding entry is “binds”.
